Test results: patent US20030176339A1
Results are given in words; binding and its absence hold for the method and conditions named. Binding seen in cells or lysates may run through a third protein. Some entries that bind do so weakly or less than the wild type.

Amino acid sequences for entries named in this document (tags omitted). A change or cut given only in a name is not applied to a line headed by its entry. Residues count along the entry.
UniProt P02647, residues 25-267: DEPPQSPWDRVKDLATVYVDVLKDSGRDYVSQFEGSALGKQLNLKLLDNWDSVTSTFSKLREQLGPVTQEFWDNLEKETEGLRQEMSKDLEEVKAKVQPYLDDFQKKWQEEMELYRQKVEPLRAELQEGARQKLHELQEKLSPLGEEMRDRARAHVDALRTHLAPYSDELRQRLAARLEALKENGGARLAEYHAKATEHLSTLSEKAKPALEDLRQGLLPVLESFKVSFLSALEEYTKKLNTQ
UniProt O60494: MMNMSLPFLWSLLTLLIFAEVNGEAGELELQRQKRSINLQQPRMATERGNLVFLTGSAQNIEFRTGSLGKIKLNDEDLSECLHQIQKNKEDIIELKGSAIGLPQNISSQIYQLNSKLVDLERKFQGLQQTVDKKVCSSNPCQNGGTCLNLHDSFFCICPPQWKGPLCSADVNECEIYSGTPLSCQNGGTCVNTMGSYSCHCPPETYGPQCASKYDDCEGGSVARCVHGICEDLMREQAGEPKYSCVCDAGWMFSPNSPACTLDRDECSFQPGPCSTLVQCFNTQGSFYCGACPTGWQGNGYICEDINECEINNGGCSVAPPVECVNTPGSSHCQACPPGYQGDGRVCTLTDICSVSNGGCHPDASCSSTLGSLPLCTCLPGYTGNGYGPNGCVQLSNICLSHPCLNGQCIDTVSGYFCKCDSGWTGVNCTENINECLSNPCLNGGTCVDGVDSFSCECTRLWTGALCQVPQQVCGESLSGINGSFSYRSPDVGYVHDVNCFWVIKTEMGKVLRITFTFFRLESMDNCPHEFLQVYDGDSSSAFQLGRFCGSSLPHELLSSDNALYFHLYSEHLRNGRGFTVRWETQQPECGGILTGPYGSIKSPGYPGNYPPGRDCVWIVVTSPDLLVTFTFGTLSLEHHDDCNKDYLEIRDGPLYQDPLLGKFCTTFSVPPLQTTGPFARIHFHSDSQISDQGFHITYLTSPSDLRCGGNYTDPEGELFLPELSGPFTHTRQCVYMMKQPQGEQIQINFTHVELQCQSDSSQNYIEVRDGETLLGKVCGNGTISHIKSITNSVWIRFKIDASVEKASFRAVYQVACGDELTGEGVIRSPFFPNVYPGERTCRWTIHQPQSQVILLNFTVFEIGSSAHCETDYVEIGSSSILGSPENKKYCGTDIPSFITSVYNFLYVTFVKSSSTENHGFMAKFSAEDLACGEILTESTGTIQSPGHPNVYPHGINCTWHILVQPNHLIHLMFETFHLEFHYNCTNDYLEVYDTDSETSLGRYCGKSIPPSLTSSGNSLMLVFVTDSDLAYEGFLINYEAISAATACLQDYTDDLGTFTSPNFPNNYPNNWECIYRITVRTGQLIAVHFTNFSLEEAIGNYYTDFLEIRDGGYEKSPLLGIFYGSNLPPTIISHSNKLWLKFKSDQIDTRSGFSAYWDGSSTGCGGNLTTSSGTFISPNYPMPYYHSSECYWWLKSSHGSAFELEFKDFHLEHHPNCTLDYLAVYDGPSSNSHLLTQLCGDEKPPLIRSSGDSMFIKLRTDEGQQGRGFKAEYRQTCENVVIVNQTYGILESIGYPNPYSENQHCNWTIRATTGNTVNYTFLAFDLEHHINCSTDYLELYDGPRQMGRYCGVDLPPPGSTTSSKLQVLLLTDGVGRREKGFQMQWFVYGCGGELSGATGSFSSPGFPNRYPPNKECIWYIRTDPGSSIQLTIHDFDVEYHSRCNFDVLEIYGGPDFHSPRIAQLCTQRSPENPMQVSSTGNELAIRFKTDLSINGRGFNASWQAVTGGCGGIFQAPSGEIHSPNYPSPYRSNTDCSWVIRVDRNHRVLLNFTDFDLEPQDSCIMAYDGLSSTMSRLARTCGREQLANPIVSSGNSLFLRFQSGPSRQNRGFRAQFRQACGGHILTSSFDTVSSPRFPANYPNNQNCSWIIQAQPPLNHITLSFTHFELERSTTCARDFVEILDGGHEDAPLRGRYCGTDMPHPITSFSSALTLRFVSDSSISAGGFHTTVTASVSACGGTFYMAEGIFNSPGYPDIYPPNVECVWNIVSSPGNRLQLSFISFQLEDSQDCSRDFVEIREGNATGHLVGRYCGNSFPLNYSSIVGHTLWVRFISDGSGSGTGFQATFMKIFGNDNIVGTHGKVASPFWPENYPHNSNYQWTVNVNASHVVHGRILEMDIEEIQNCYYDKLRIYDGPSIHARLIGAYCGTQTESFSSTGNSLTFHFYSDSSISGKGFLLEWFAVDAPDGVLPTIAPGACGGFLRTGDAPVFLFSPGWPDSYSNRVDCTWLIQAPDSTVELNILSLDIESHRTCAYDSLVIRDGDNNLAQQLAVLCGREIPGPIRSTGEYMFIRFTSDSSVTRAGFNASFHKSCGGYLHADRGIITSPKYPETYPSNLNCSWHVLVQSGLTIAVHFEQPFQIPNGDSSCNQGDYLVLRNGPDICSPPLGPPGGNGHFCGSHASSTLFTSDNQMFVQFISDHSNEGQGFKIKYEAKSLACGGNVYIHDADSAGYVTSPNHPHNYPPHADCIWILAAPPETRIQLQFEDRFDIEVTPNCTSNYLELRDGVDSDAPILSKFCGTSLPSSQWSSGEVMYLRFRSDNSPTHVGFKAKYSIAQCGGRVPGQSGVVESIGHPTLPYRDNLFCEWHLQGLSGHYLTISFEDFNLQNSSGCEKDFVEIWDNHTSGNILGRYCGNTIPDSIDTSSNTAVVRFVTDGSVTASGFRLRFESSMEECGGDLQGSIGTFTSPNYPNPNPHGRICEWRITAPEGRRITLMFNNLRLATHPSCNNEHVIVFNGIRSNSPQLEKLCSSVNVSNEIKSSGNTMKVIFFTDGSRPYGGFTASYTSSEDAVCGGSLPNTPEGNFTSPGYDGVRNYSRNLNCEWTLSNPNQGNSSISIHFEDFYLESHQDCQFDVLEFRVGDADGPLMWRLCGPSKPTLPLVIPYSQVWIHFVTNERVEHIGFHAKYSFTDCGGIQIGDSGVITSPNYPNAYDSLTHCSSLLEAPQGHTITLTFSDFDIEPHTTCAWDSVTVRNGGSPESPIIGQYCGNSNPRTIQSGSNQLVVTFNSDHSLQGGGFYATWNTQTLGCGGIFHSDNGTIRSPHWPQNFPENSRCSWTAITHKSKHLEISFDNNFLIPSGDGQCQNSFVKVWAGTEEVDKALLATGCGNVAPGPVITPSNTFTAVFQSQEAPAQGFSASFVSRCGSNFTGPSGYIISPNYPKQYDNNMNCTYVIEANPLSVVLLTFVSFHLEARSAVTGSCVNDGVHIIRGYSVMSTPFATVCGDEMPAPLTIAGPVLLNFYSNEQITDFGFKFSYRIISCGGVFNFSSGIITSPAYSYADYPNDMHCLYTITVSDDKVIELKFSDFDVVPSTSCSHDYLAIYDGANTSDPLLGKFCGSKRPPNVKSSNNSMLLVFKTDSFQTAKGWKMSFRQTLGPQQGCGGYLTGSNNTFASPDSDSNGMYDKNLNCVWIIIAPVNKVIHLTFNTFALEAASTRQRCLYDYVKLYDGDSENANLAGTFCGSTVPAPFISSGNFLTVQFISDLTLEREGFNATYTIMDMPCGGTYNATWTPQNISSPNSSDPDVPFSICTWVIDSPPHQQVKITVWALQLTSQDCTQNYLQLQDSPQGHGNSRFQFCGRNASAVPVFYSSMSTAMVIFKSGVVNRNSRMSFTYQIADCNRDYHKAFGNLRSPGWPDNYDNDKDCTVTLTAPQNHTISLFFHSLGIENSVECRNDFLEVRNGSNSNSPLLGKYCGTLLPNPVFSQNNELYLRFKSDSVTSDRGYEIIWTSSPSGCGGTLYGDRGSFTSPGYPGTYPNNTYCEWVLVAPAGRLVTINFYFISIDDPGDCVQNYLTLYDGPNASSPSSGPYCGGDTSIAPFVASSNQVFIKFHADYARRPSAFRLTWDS

Target: human apolipoprotein A-I (Sigma), cross-linked to CNBr-activated Sepharose resin (human) (UniProt P02647)
Assay: pull-down of insect cell supernatant on apo A-I Sepharose, EDTA elution, anti-Myc Western blot

Substance: CUB9-CUB14 fragment peptide of human cubilin with C-terminal Myc tag and His tag, expressed in HiFive insect cells (from UniProt O60494 1358-2091) (receptor)
- binding: binds
